Results are given in words; binding and its absence hold for the method and conditions named. Binding seen in cells or lysates may run through a third protein. A yes stands for co-enrichment or nearness to the bait. Other partners may have been found. For some assays here: A no says only that the protein was not detected with the bait.
What was measured:
GST-GluR2NT (V22-E545) = GST-GluR2NT (V22-E545) (UniProt P19491); test: affinity purification with mass spectrometry; GST fusion proteins used to pull down proteins from solubilized rat hippocampal tissue; SDS-PAGE, Coomassie staining, ~37 kD band identified by LC-MS/MS; only the target purified
GST-GluR1NT (A19-E538) = GST-GluR1NT (A19-E538) (UniProt P19490); test: as above

By UniProt entry, the sequences of proteins in these tests, tags left out. Residues count along the entry.
UniProt P19491, residues 22-545: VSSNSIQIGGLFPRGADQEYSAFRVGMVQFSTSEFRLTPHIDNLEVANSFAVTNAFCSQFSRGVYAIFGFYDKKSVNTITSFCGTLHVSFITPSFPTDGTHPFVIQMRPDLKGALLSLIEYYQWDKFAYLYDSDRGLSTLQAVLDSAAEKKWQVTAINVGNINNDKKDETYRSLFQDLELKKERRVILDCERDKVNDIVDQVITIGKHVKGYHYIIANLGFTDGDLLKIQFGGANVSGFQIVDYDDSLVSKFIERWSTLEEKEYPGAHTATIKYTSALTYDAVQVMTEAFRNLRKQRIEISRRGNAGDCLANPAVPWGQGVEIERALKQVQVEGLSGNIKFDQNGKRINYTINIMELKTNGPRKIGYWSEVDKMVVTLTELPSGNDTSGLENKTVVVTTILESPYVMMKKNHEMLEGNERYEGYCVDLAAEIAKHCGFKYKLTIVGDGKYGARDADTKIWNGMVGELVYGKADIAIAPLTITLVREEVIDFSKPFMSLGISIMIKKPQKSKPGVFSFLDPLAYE
UniProt P19490, residues 19-538: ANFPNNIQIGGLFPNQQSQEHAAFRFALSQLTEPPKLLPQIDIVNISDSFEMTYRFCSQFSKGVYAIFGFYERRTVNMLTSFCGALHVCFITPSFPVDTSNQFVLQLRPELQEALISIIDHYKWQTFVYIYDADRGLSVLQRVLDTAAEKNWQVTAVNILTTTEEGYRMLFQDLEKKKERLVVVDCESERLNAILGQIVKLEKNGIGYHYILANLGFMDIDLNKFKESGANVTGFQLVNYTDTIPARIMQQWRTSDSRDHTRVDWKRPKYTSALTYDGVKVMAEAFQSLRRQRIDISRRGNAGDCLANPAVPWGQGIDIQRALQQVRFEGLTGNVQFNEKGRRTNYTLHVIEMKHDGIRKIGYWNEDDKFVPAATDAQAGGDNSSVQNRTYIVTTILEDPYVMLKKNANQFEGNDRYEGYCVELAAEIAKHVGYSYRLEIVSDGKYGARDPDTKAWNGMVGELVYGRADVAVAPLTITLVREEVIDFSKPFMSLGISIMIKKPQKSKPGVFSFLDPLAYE
UniProt P04797: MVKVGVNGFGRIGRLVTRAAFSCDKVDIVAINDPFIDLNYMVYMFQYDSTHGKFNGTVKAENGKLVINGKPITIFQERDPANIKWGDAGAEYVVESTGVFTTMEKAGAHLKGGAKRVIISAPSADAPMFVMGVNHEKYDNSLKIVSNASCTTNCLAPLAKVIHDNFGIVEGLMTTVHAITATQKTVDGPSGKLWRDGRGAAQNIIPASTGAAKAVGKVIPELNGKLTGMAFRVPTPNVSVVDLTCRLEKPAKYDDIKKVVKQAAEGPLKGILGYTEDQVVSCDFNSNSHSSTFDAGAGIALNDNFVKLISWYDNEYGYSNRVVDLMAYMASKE

With “GAPDH (glyceraldehyde-3-phosphate dehydrogenase), rat, endogenous (from UniProt P04797 1-333) (enzyme)” the binding (GST-GluR2NT (V22-E545)) was “binds” and the binding (GST-GluR1NT (A19-E538)) was “no binding”.

— paper PMC3407747
